Measured values from the supplement of paper PMC5393889.
The other results are listed elsewhere or left out.

These compounds were tested on Caenorhabditis elegans N2 (assay: aldicarb interaction hit call (worm growth perturbed in combination with 10 uM aldicarb in both replicates, no effect as single agent) (binary (1 = interacts)); higher = interacts with aldicarb (growth perturbed)). Conditions: first compound 1.5 µM; aldicarb concentration 10 µM; 6 days; 20 °C.

Row | Compound | aldicarb interaction hit call
1 | CC1(CCC(=O)N2CCC3(CCCN(Cc4cccc(F)c4F)C3)C2)CC1 (configuration not stated) [wact-272] + CNC(=O)O/N=C/C(C)(C)SC [aldicarb] | inactive: 0
2 | OCn1c2ccccc2c2cc(Cl)ccc21 [wact-35] + CNC(=O)O/N=C/C(C)(C)SC [aldicarb] | inactive: 0
3 | CSc1cc(-c2ccccc2)ncn1 [wact-197] + CNC(=O)O/N=C/C(C)(C)SC [aldicarb] | inactive: 0
4 | CCCN1CCC(C(=O)Nc2cccc(-c3cccc(F)c3)c2)CC1 [wact-320] + CNC(=O)O/N=C/C(C)(C)SC [aldicarb] | inactive: 0
5 | COc1ccc(OCc2ccc(Cl)cc2)cc1 [wact-102] + CNC(=O)O/N=C/C(C)(C)SC [aldicarb] | inactive: 0
6 | c1ccc2c(-c3cnnc(N4CCN5CCCC5C4)n3)cccc2c1 (configuration not stated) [wact-278] + CNC(=O)O/N=C/C(C)(C)SC [aldicarb] | inactive: 0
7 | CNCc1cccc(OCc2ccc(Cl)cc2)c1.Cl [wact-172] + CNC(=O)O/N=C/C(C)(C)SC [aldicarb] | inactive: 0
8 | Br.Clc1ccc(Nc2nc(-c3ccc(I)cc3)cs2)cc1 [wact-393] + CNC(=O)O/N=C/C(C)(C)SC [aldicarb] | active: 1
9 | COc1ccc(NC(=O)c2ccccc2)cc1/N=C/c1ccc(C#Cc2ccccc2)cc1 [wact-377] + CNC(=O)O/N=C/C(C)(C)SC [aldicarb] | inactive: 0
10 | Cc1cc(-c2nc3ccccc3o2)ccc1N [wact-571] + CNC(=O)O/N=C/C(C)(C)SC [aldicarb] | inactive: 0
11 | COc1cc(CNCCO)ccc1OCc1ccc(Cl)cc1Cl.Cl [wact-96] + CNC(=O)O/N=C/C(C)(C)SC [aldicarb] | inactive: 0
12 | O=C(CNc1ccc(C(F)(F)F)cc1[N+](=O)[O-])Nc1cccc(SC(F)(F)F)c1 [wact-489] + CNC(=O)O/N=C/C(C)(C)SC [aldicarb] | inactive: 0

At a glance, some entries already given:
Row | Compound | aldicarb interaction hit call
7 | CNCc1cccc(OCc2ccc(Cl)cc2)c1.Cl [wact-172] + CNC(=O)O/N=C/C(C)(C)SC [aldicarb] | inactive: 0
8 | Br.Clc1ccc(Nc2nc(-c3ccc(I)cc3)cs2)cc1 [wact-393] + CNC(=O)O/N=C/C(C)(C)SC [aldicarb] | active: 1
